Data published in paper PMC8943175.
Results are given in words; binding and its absence hold for the method and conditions named. In cells and extracts the contact can be indirect.

Protein sequences, listed by entry. Tags and fused reporters are not part of them.
UniProt Q8CFE3: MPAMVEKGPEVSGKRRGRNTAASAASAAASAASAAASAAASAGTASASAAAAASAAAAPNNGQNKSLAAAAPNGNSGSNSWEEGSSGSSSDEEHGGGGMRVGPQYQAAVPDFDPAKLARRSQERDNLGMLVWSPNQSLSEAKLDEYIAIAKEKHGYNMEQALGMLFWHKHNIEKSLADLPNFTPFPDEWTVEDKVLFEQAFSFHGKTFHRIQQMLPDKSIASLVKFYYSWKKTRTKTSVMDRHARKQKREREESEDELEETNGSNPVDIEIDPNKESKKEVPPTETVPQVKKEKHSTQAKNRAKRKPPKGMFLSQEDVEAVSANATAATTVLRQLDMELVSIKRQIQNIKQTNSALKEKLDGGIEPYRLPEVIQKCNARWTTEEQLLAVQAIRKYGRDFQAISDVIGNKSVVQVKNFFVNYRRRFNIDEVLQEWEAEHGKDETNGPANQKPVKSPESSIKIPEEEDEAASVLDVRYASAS
UniProt Q61188: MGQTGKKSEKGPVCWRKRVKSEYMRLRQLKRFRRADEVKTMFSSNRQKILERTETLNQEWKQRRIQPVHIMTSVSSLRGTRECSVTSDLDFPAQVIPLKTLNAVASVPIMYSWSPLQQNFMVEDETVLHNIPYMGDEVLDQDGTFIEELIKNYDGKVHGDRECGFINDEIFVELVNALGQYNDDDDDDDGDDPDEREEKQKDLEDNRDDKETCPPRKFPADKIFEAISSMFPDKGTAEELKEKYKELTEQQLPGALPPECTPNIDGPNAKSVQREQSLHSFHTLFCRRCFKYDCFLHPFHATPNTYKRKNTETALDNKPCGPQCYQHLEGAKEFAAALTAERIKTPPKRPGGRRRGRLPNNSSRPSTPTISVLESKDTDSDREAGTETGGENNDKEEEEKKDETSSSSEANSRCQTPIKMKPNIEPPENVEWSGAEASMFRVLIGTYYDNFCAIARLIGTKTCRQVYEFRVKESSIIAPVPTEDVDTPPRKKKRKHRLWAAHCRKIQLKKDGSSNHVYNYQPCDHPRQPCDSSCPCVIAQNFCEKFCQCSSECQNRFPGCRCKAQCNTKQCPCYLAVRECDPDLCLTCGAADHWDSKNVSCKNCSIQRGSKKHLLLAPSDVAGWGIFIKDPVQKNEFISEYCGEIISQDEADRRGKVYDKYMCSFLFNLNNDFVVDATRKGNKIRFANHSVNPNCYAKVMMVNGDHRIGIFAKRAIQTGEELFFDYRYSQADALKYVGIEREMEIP

Target: REST Corepressor 1 (RCOR1/CoREST1), endogenous in HT22 cells (mouse (endogenous in HT22)) (UniProt Q8CFE3)
Experiment: co-IP; endogenous proteins from HT22 whole-cell (native) extracts; lysis in 20 mM Tris-HCl pH 7.5, 150 mM NaCl, 1 mM EDTA, 1 mM EGTA, 1% NP40 with sonication; 1-2 ug antibody to the bait per 700 ug protein on Protein A magnetic beads, 12 h; blots of the precipitate; in some panels cells treated 1 h with THZ1, Flavopiridol, Cordycepin or Actinomycin D, or with …

binding: no binding
Substance: EZH2, endogenous in HT22 cells (from UniProt Q61188 1-746)
